From PMC4497409 come the findings set out here.

Protein sequences, listed by entry. Tags and fused reporters are not part of them. Lines headed by an entry give the natural chain unless they say otherwise; changes in a name come on top. Chains listed by the source or under a name are the forms on record and can include a tag or linker. Residues count along the entry.
Biotinylated human Norrin R107E/R109E/R115L (Q00604, form named): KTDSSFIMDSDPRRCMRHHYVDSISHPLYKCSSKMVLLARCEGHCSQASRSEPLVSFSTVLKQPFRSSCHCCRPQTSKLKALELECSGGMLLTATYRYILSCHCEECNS
UniProt O75581, residues 20-631: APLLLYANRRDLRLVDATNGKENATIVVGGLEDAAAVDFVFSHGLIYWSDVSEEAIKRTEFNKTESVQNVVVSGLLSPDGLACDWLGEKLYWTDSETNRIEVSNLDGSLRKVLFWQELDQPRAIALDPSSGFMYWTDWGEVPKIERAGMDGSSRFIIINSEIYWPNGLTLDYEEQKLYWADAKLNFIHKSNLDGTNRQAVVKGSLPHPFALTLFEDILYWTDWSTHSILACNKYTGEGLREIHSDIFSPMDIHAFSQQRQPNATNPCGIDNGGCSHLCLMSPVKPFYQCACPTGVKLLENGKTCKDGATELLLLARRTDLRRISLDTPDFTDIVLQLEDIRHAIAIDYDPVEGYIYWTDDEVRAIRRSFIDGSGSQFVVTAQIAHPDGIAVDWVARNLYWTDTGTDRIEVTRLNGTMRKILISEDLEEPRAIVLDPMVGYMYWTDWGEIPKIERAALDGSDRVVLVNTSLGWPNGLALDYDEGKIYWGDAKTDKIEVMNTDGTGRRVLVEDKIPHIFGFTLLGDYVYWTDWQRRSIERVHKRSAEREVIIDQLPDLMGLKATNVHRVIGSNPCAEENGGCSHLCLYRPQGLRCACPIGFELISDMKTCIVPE

This assay concerns the target Biotinylated human Norrin R107E/R109E/R115L (human) (UniProt Q00604). The assay can be described thus: SPR; Biacore T200, 25 C, 10 mM HEPES, pH 7.5, 0.15 M NaCl, 0.005% Tween20; biotinylated Norrin variants captured on streptavidin coupled to a CM5 chip; glycosylated FzCRD proteins or Lrp6 P1E1P2E2 as analytes; equilibrium binding, 1:1 Langmuir model; whether the biotinylated Norrin was purified before capture is not told. (In general: In SPR one partner is held on a chip, and binding of the other changes the refractive index at the surface.)

No constants are given. Whether binding was seen depends on the method and setting. Some results given as binding are weak or reduced against the parent protein; the word gives no strength.

As for “Lrp6 ectodomain fragment comprising the first two tandem beta-propeller-epidermal growth factor-like domain pairs (Lrp6 P1E1P2E2), human (from UniProt O75581 20-631) (domain or fragment)”, the binding result is listed as “binds”.
